Test results taken from the supplement of paper PMC10849652.
This is one part of the list.

Protein sequences, listed by entry. Tags and fused reporters are not part of them. Lines headed by an entry give the natural chain unless they say otherwise; changes in a name come on top.
UniProt Q9Y2X9: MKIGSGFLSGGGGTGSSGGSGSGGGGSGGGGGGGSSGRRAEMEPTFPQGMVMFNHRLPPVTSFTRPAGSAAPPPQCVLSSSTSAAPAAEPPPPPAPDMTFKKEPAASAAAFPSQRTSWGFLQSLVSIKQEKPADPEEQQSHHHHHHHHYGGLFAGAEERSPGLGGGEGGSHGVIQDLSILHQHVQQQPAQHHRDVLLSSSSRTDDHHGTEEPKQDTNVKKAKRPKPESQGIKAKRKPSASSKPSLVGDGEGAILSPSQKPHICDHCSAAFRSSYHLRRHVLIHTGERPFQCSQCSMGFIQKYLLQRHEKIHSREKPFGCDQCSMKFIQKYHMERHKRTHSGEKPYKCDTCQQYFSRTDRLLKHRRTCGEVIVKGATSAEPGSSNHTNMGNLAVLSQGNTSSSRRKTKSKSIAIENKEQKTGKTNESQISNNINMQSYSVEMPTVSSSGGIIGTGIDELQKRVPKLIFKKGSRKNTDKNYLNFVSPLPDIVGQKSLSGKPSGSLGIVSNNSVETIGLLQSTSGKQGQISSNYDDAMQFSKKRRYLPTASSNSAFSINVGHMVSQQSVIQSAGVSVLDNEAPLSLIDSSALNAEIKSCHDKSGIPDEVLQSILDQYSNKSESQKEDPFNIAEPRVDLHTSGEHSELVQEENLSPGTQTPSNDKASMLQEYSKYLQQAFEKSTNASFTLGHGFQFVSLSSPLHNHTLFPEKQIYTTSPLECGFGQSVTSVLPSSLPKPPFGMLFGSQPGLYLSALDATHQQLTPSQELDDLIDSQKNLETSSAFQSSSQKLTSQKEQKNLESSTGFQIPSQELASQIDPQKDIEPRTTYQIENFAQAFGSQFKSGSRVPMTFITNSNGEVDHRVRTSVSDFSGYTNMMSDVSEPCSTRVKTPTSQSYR
UniProt Q9Y2D9: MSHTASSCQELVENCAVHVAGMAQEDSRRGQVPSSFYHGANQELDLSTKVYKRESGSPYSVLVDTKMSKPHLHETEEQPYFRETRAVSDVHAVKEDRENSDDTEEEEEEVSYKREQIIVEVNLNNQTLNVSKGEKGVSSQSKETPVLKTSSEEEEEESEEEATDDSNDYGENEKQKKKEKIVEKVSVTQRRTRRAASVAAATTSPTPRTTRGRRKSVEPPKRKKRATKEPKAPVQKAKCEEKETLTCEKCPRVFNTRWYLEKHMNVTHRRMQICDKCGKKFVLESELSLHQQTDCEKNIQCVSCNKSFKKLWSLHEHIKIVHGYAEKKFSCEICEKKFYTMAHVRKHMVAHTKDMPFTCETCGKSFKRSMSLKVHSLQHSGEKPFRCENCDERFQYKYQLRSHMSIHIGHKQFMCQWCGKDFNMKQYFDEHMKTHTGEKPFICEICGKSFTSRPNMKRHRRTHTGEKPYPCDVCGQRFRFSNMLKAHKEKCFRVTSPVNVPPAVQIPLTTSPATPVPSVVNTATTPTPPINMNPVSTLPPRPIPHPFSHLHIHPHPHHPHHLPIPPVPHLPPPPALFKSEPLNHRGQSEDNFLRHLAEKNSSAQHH
UniProt Q6IQ21: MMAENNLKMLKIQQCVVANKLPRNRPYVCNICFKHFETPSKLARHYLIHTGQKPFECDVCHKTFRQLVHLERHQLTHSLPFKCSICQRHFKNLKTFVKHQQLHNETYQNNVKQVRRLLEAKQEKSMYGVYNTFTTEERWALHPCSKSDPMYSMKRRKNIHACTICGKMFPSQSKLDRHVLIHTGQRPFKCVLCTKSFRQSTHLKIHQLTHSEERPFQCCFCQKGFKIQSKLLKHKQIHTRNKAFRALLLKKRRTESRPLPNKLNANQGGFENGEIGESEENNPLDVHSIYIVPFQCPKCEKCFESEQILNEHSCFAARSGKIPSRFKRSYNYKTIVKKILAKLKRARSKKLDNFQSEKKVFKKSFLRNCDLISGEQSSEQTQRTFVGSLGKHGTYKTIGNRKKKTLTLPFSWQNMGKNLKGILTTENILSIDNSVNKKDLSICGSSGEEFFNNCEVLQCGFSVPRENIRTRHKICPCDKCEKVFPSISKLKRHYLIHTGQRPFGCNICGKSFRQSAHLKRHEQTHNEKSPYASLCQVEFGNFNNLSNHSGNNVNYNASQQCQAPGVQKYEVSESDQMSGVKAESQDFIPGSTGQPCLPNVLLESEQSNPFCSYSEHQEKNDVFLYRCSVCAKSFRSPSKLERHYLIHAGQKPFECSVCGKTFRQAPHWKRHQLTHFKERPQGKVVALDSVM
UniProt P59817: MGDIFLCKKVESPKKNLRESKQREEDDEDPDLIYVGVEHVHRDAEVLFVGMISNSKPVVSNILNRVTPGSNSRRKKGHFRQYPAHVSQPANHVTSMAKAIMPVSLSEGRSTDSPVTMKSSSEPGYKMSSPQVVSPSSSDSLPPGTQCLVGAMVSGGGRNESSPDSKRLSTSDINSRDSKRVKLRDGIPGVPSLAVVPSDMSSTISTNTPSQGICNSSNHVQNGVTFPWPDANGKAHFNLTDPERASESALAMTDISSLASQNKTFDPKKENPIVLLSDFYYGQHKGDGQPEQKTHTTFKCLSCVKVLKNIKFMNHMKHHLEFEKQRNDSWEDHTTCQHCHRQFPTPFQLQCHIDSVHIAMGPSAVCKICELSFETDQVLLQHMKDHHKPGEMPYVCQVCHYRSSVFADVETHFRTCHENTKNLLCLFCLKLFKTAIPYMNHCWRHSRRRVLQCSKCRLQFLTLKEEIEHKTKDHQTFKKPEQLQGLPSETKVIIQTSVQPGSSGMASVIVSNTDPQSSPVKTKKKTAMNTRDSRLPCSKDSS
UniProt P36508: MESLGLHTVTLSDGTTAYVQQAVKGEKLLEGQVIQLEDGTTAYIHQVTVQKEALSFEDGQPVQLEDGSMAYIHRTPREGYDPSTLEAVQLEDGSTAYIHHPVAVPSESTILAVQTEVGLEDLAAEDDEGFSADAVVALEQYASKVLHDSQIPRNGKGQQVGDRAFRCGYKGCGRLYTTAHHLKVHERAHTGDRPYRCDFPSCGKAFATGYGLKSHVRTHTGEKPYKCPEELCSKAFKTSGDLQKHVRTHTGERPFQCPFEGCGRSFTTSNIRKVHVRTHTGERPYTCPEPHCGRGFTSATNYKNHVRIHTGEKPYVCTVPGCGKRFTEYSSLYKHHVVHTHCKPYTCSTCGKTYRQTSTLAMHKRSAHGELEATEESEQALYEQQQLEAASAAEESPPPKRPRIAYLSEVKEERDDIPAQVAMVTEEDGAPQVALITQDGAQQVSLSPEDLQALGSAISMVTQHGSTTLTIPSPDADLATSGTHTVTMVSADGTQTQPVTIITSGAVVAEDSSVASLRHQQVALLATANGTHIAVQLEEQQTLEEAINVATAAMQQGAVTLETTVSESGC
UniProt Q16670: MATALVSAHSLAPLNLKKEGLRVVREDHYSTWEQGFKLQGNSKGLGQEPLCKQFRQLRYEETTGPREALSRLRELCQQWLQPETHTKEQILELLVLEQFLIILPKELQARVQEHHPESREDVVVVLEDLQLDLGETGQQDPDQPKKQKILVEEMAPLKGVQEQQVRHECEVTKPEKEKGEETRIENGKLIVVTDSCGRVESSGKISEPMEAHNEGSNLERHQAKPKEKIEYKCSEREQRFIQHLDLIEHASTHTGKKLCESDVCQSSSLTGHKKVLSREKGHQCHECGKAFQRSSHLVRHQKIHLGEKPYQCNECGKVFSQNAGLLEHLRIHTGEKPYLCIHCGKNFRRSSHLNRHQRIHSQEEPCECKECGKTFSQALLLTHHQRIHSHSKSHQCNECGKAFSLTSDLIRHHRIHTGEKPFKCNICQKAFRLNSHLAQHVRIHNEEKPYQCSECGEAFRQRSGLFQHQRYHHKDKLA
UniProt Q0VGE8: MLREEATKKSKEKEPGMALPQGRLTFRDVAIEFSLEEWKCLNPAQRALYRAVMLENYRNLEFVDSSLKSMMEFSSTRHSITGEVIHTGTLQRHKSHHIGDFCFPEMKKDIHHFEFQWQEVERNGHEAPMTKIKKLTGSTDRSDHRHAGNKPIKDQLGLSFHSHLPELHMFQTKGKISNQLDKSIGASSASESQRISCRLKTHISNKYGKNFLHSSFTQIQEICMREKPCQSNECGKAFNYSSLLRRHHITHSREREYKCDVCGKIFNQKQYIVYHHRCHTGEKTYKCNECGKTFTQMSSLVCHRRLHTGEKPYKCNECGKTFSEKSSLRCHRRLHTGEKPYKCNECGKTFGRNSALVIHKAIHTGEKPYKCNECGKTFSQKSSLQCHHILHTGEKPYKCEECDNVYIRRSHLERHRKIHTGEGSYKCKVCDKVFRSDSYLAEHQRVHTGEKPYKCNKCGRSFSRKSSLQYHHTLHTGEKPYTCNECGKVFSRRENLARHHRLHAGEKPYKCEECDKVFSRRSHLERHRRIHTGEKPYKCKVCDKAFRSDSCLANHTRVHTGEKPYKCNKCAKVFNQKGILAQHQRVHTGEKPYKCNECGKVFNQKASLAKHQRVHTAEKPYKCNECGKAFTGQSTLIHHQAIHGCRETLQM
UniProt Q19AV6: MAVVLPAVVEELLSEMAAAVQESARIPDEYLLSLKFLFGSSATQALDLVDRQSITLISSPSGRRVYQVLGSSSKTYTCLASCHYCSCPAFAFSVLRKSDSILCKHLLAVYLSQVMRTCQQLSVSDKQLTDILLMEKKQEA
UniProt Q9UJ78: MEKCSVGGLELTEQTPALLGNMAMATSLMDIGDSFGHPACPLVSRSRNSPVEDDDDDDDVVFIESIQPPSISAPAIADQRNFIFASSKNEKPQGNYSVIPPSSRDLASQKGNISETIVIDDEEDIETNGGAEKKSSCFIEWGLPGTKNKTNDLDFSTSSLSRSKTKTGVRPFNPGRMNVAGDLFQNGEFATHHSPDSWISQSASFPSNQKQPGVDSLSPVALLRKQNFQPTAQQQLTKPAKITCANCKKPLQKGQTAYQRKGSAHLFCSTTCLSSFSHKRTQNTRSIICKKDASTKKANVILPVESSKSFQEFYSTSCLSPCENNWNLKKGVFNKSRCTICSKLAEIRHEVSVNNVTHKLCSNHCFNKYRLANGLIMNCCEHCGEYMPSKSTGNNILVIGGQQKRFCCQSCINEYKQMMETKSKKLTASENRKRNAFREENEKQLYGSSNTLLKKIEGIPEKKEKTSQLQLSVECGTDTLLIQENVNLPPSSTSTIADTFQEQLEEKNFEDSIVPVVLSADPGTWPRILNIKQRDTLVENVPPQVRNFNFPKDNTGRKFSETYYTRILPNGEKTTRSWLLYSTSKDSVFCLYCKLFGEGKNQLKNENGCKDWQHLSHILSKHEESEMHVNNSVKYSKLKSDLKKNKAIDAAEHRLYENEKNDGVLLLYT
UniProt Q8TF50: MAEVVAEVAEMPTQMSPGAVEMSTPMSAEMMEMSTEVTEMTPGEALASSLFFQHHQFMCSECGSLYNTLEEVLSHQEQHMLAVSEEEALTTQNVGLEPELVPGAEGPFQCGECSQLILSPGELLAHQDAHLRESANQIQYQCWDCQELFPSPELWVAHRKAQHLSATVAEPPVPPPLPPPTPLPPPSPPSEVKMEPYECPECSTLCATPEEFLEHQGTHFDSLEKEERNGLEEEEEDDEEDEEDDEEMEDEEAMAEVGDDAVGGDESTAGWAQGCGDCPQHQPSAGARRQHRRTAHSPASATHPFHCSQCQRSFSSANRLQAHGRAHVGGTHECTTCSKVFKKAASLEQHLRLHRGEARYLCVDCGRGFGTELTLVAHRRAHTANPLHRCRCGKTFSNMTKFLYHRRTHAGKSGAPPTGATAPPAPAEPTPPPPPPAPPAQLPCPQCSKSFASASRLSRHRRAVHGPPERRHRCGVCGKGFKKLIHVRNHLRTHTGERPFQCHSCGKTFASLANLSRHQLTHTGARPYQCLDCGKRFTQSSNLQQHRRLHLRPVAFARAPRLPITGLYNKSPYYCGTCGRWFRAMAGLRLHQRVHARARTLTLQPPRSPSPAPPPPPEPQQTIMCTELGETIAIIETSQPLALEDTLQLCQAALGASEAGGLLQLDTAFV
UniProt Q6NSZ9: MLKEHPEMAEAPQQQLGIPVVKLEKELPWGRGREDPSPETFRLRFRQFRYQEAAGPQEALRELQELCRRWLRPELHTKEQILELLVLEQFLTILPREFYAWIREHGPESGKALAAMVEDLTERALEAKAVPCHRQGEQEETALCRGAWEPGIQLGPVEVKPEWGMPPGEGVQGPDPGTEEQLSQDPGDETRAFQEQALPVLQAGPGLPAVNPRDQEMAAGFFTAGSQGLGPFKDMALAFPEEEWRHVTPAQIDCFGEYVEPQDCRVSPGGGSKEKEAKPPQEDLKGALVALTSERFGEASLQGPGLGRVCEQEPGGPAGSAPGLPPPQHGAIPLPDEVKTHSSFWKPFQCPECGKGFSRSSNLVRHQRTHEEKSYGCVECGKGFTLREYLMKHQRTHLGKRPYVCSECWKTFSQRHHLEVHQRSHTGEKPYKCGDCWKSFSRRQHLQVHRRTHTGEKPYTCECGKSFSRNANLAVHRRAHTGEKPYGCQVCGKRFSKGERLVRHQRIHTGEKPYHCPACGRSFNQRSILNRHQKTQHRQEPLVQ
UniProt Q9P1U0, whole entry, looked up: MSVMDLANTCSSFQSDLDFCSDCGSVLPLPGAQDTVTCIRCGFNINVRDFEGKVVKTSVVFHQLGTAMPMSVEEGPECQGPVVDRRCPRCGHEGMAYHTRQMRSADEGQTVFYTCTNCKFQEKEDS

compound: NC(=O)Nc1cc(-c2cccc(F)c2)sc1C(=O)N[C@H]1CCCNC1; assay: log2 fold change, soluble protein after heating vs DMSO (PISA); higher = thermal stabilisation; K562 lysate, 10 uM; active = over 0.2 and 3.5 SD of the protein, either way, in both replicates (recomputed)
Procedure, shortened: (§1)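 The values are log-two fold changes in thermal stability compared with solvent controls and come from duplicates. They were obtained by TMTpro 16plex LC-MS/MS, with channel sums equalised, on the supernatant after 21,000xg for 90 min. That supernatant came from crude K562 extract at 1 mg/mL protein treated with 10 μM compound for 30 min, heated for 3 min across 48°C-58°C, pooled and brought to 0.5% NP-40 at 4°C.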

log2 fold change, inactive:
ZNF16 (UniProt P17020) -0.007
ZNF281 (UniProt Q9Y2X9) -0.028
ZNF652 (UniProt Q9Y2D9) -0.036
ZNF770 (UniProt Q6IQ21) 0.095
ZNF410 isoform 5 (UniProt Q86VK4) -0.087
ZNF808 (UniProt Q8N4W9) 0.173
ZMYND19 (UniProt Q96E35) -0.005
ZNF280A (UniProt P59817) -0.068
ZNF280A, A0A0G2JN84 -0.062
ZRSR2 (UniProt Q15696) 0.06
ZNF76 (UniProt P36508) -0.045
ZSCAN26 (UniProt Q16670) -0.093
ZNF646 (UniProt O15015) 0.057
ZNF655 isoform 3 (UniProt Q8N720) -0.011
ZNF184 (UniProt Q99676) -0.032
ZNF816 (UniProt Q0VGE8) 0.268

compound: NC1(c2ccc(-c3nc4ccn5c(=O)[nH]nc5c4cc3-c3ccccc3)cc2)CCC1; assay: as above
Procedure, shortened: as §1

log2 fold change, inactive:
ZNF281 (UniProt Q9Y2X9) 0.02
ZMYND19 (UniProt Q96E35) 0.071
ZNF280A (UniProt P59817) -0.081
ZSWIM7 (UniProt Q19AV6) 0.119
ZNF76 (UniProt P36508) -0.077
ZMYM5 (UniProt Q9UJ78) 0.029
ZNF526 (UniProt Q8TF50) -0.166
ZNF670 (UniProt Q9BS34) 0.003
ZSCAN25 (UniProt Q6NSZ9) -0.025
ZNRD1 (UniProt Q9P1U0) 0.028
ZMAT5 (UniProt Q9UDW3) 0.35
